Reference: publication PMC9599641, “TNP Analogues Inhibit the Virulence Promoting IP3-4 Kinase Arg1 in the Fungal Pathogen Cryptococcus neoformans” (Biomolecules, 2022)
Results are given in words; binding and its absence hold for the method and conditions named.

B1: IP3-4 kinase from Cryptococcus neoformans (CnArg1) (enzyme, UniProt J9W3G0 1-435)
chain: MDLPLTLDDHIPFSHQVAGHPGVMSDPSGSLVIKPALPREIAFYQLLSNSDPEDIVWPLRKFVPKNYGTLRLEGRIGAAGGVETDLDVQDEVPESVVLANLAYAYTRPNIMDVKLGTVLYAPYATDEKRQRMDRQARETTTYETGIRLTGCQTWHAPTQSYISTPKSFGKSITPPQLSQGMVRFFPLPTDSIPSLVTLPSPPPTAVEVVSTVAASQLPIPAQTSCASVIQSSTSIPIPPSTPISPDPAAIASIFPASTDPENSPTYENHSIPPPTLARLLTLLLQKLDQLTAVLSTLEMRFVGASLLVVYEGDPIRLEAALDREEAKVQEESEEKEKRDGERSMFSDDGSIDFSDSDADSDEDDEEEYDSDDELDGKKKDERRASKCPALTLKLIDFAHTWLAQGEGPDEGVLKGLKTFRSLVEGRLEEVERGCV
B2: IP3-4 kinase from Candida albicans (CaIpk2) (enzyme, UniProt Q59YE9 1-350)
chain: MIPTLNSLTPSKHQAAGHDGCLATDSLFIKLTVQQEIDFYTQVQSHDQSVQDAPLGSQLSHWMPTFMGTLTQGDVSKTQTAGSDQSSSAEGQTDKQYIVLSNSYHGFTHPSILDIKLGAKLTDDEVTAPEKIARLQKVSDSTTSGSLNFRICGMKVYNGKSDTKPANELYENMNDSSVSVNINDADDHKYLEFNKFYGRSLSKDNIKEGLELYFNNHLPKAIVKRLLVVFHKRLQLLYNCLLDYEVRIFSGSLLFIYESDLTKWENVTEDNYDTYDSLVREIVDDEDEDDEEFEEDSKKDKTQPLTPLSSLNFIDFAHAKFVEGQGHDENIVQGIENLIDIFNALIAKYD

Experiments:
[1] = target: IP3-4 kinase from Cryptococcus neoformans (CnArg1) (Cryptococcus neoformans var grubii (strain H99)) (UniProt J9W3G0); test: SEC-MALS; SEC-MALLS (Wyatt Technology) of the purified, GST-cleaved recombinant enzyme to determine its multimerization state; buffer and concentration not stated; both purified
[2] = target: IP3-4 kinase from Candida albicans (CaIpk2) (Candida albicans (strain SC5314)) (UniProt Q59YE9); test: as above

| Binder | binding [1] | binding [2] |
| --- | --- | --- |
| B1 | no binding | – |
| B2 | – | no binding |
